From paper PMC11304257
Positions count from the first letter of the chain named. Results are given in words; binding and its absence hold for the method and conditions named. Binding seen in cells or lysates may run through a third protein. Some results given as binding are weak or reduced against the parent protein; the word gives no strength. For part of these data: Tags and fused reporters may be left off the sequences shown.

Protein sequences, listed by entry. Tags and fused reporters are not part of them.
UniProt P78527: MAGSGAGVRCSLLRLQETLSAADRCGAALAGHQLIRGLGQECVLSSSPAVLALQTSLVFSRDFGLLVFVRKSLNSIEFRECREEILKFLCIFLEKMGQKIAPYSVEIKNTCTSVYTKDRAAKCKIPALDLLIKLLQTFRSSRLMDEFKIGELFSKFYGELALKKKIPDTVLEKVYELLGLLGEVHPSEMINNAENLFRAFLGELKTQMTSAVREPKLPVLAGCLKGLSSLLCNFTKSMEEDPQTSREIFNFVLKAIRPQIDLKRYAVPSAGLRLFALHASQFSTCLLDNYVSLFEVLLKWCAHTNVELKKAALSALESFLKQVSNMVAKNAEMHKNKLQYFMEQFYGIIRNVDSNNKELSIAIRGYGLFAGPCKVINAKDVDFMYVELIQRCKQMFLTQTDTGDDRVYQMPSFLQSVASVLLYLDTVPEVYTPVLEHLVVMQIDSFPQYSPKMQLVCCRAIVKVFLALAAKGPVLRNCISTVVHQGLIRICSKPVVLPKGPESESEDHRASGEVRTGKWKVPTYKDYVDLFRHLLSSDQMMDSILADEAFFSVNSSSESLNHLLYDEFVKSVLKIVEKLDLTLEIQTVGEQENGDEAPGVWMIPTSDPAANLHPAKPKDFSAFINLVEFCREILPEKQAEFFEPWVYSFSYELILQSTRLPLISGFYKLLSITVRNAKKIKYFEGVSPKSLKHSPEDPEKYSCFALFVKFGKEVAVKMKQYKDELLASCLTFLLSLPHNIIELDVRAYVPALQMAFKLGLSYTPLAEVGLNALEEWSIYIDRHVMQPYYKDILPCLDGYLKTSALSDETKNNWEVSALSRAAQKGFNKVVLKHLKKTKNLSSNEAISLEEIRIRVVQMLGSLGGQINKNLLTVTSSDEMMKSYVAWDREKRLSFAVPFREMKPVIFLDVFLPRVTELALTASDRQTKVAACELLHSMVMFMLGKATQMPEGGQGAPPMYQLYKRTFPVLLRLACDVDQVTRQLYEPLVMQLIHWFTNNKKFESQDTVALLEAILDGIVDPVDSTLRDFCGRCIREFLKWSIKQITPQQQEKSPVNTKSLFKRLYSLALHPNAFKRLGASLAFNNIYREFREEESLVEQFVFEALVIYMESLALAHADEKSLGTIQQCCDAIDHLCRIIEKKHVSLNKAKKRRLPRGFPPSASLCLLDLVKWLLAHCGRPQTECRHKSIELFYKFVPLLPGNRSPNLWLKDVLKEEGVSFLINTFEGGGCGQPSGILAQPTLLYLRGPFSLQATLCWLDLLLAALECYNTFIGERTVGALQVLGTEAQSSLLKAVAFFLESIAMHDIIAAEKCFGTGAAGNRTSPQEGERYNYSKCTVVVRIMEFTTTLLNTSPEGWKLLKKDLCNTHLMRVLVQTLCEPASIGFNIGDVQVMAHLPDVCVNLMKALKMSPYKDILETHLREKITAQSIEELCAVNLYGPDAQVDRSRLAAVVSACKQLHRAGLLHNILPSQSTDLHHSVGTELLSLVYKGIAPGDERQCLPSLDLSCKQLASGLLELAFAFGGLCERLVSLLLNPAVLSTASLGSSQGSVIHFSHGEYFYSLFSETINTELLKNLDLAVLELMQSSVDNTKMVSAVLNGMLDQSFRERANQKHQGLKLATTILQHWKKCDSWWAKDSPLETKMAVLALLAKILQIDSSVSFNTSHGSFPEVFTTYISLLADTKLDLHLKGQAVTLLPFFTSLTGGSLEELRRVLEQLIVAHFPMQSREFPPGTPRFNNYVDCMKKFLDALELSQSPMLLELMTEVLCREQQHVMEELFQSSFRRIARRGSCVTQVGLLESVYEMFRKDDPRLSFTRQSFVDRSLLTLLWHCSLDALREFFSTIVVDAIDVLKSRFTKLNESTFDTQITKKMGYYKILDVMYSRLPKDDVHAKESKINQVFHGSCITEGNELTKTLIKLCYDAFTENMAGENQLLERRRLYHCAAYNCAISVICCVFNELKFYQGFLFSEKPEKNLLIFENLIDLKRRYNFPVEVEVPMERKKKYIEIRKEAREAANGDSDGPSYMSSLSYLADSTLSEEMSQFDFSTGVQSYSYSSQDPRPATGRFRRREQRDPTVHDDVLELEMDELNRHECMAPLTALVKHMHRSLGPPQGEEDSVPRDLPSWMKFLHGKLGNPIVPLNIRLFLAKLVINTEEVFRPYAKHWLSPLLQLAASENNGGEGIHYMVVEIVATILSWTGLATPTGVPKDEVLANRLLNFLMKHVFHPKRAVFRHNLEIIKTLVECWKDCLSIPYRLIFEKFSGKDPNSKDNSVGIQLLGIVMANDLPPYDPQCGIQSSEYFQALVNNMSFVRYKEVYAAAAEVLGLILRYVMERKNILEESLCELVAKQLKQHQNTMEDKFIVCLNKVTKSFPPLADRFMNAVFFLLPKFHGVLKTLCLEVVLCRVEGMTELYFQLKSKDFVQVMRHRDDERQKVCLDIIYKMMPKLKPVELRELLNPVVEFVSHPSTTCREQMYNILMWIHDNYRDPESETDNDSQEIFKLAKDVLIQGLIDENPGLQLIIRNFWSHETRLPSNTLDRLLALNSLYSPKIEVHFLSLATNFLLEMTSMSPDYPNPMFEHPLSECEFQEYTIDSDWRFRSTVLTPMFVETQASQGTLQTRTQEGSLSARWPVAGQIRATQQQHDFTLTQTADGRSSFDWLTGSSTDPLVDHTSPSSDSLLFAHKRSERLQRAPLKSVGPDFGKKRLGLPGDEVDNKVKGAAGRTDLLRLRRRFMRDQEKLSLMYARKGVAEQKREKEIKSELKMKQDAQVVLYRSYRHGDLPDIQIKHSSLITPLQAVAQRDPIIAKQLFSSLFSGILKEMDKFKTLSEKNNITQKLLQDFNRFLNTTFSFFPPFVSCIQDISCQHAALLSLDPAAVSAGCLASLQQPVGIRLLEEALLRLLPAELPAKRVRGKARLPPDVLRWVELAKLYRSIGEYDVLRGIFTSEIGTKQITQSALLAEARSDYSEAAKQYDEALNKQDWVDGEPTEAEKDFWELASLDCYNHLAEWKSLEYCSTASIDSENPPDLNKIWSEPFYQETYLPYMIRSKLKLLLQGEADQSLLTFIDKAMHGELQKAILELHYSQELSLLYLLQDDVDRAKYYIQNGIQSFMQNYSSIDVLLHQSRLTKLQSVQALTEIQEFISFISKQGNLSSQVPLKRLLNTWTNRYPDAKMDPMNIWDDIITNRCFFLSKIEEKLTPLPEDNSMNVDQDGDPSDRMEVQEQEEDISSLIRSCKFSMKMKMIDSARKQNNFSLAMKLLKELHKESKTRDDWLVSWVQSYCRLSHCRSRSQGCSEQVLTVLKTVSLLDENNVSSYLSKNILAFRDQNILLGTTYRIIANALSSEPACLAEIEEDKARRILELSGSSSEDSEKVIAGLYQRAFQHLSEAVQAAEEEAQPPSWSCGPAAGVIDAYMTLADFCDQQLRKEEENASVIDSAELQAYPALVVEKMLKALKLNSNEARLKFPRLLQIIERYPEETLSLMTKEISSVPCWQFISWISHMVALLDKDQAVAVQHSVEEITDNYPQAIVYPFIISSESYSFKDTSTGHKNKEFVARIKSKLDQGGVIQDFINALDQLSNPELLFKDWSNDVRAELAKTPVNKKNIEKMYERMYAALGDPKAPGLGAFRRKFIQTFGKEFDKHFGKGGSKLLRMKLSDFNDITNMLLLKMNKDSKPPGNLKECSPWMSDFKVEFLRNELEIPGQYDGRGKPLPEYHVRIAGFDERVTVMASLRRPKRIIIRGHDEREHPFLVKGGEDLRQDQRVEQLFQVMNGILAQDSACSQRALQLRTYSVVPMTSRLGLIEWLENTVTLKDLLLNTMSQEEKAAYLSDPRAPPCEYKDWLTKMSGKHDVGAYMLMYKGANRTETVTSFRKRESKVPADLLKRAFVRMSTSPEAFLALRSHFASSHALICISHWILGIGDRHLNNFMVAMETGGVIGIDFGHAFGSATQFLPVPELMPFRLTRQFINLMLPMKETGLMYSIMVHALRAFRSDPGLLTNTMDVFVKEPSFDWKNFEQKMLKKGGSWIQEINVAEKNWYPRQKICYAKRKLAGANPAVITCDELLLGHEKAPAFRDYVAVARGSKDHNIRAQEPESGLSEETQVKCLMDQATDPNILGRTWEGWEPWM

How the values were obtained:
[1] = target: T1, TRIM24 S767/768D phosphomimetic mutant (human) (UniProt O15164); experiment: co-IP; lysates of NHA/HRas^V12 cells expressing TRIM24 WT, deletion or point mutants; IP lysis buffer (20 mM Tris-HCl pH 7.5, 150 mM NaCl, 1 mM EDTA, 1% Triton X-100), 4 °C, four washes, Western blot; endogenous DNA-PK complex; some panels after NU7441 (4 µM, 24 h), Dabrafenib (40 µM, 24 h), U3 snoRNA knock-down or PHAX knock-down
T1 sequence: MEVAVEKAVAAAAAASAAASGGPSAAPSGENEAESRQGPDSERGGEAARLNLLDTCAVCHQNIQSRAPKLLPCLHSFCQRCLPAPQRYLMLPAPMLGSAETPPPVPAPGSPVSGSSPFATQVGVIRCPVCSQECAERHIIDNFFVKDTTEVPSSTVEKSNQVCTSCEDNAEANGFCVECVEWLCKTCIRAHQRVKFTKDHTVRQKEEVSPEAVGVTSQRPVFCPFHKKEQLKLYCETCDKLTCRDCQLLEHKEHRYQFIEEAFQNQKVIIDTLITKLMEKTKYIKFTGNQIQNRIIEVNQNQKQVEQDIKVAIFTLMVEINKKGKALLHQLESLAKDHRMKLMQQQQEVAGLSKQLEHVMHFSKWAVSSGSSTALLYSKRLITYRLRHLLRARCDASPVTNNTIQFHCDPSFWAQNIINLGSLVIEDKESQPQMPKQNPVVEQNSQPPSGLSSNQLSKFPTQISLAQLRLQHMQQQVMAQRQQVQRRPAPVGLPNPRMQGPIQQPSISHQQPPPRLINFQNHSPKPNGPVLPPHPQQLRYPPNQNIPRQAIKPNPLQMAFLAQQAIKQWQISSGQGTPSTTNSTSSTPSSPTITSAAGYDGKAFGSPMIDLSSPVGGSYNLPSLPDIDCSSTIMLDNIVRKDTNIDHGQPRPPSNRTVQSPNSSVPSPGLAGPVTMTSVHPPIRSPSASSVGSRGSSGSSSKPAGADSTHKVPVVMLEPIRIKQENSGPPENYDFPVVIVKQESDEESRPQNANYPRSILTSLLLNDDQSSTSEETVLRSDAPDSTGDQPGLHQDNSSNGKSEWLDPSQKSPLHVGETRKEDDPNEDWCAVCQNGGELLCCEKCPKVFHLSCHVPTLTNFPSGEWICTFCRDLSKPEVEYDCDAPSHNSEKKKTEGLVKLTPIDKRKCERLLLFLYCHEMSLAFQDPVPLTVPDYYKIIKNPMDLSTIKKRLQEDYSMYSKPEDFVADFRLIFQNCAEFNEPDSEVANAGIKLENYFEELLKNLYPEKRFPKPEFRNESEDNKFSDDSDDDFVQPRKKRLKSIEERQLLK

[2] = target: T2, Flag-TRIM24 wild type (tripartite motif containing 24) (human) (UniProt O15164); experiment: as above
T2 sequence: T1 sequence with D767S, D768S

[3] = target: T2, Flag-TRIM24 wild type (tripartite motif containing 24) (human); experiment: co-IP; NHA cells with HRas^V12, co-transfected with TRIM24, Ku70 and Ku80 constructs; lysate, Western blot

Measured: binding

DNA-dependent protein kinase catalytic subunit (DNA-PKcs) (from UniProt P78527 1-4128) (enzyme)
binds: all assays above
